Test results published in publication doi:10.1101/2024.07.29.603210.
Results are given in words; binding and its absence hold for the method and conditions named. Binding seen in cells or lysates may run through a third protein. Some entries that bind do so weakly or less than the wild type. For some assays here: Tags and fused reporters may be left off the sequences shown.

Experiments:
[1] = biological target: T1, mitoNEET tagged with HA in its C-terminus (mouse, full length) (mouse) (UniProt Q91WS0); assay: co-IP
T1 sequence: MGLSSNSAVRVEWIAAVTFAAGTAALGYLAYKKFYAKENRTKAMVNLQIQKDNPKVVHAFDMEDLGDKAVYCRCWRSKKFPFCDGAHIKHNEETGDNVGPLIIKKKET

[2] = biological target: T2, endogenous mitoNEET protein (mouse (endogenous in NMuMG)) (UniProt Q91WS0); assay: co-IP
T2 sequence: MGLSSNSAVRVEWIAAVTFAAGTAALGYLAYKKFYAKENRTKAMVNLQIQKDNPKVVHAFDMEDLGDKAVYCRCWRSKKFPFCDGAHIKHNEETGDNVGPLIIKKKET

B1: prohibitin (protein, UniProt P67778 1-272)
chain: MAAKVFESIGKFGLALAVAGGVVNSALYNVDAGHRAVIFDRFRGVQDIVVGEGTHFLIPWVQKPIIFDCRSRPRNVPVITGSKDLQNVNITLRILFRPVASQLPRIYTSIGEDYDERVLPSITTEILKSVVARFDAGELITQRELVSRQVSDDLTERAATFGLILDDVSLTHLTFGKEFTEAVEAKQVAQQEAERARFVVEKAEQQKKAAIISAEGDSKAAELIANSLATAGDGLIELRKLEAAEDIAYQLSRSRNITYLPAGQSVLLQLPQ
binding [1]: binds
binding [2]: binds
